Data source: PubChem BioAssay AID686938 (Drosophila RNAi Screening Center, 2013)
The deposit covers about 23,000 reagents; below is a random part of those with a known target gene and a result. In the full data, 75 (0.33%) got an active call. 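Raw plate signals without normalisation; calls rest on plate z-scores that were not deposited; ratio present for only 364 wells.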 A number with no mark means an inactive call. Reagents against one gene are numbered here. Names joined by + are all predicted targets of the reagent. No sequences are given here. The record does not give: the dose of the treatment.

- Purpose: 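Fly genes required for calcium entry once internal stores are emptied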 (primary screen)
- System: Drosophila S2R+ cells
- Reagent: long dsRNA against Drosophila genes, about 0.25 µg dsRNA per well, roughly 10,000 cells
- Duration: 5 days of knock-down before the calcium assay
- Treatment: thapsigargin (SERCA pump blocker) to empty calcium stores; entry signal taken 4 min after adding it
- Measured: 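Per-well fluo-4 fluorescence in two replicates, unnormalised, measured in resting cells and 4 min after store depletion by the SERCA blocker thapsigargin; ratio of the two present in few wells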
- Scale: calcium entry signal: higher = stronger calcium signal after store depletion; entry to resting ratio: higher = more calcium entry relative to resting level; resting calcium signal: higher = higher resting calcium signal
- Units: calcium entry signal in fluorescence units; resting calcium signal in fluorescence units
- Active means: 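Hit if the duplicate-averaged plate z-score for entry over resting signal is under −3; wells with weak total dye signal (Fmax z < −2) or more than 5 off-targets removed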
- Calls: active = strongly reduced calcium entry; inactive = no strong reduction

CG32192: calcium entry signal, replicate 1 = 4.37e7; calcium entry signal, replicate 2 = 2.99e7; resting calcium signal, replicate 1 = 2.47e7; resting calcium signal, replicate 2 = 1.46e7
sw + Sdic4 + Sdic3 + 2 more: calcium entry signal, replicate 1 = 4.61e7; calcium entry signal, replicate 2 = 5.18e7; resting calcium signal, replicate 1 = 2.46e7; resting calcium signal, replicate 2 = 2.47e7
wds: calcium entry signal, replicate 1 = 2.34e7; calcium entry signal, replicate 2 = 3.17e7; entry to resting ratio = 1.8; resting calcium signal, replicate 1 = 1.34e7; resting calcium signal, replicate 2 = 1.62e7
CG34354 #1: calcium entry signal, replicate 1 = 4.26e7; calcium entry signal, replicate 2 = 4.15e7; resting calcium signal, replicate 1 = 1.88e7; resting calcium signal, replicate 2 = 2.08e7
CG34354 #2: calcium entry signal, replicate 1 = 2.37e7; calcium entry signal, replicate 2 = 3.48e7; resting calcium signal, replicate 1 = 1.41e7; resting calcium signal, replicate 2 = 1.74e7
CG34354 #3: calcium entry signal, replicate 1 = 2.14e7; calcium entry signal, replicate 2 = 3.32e7; resting calcium signal, replicate 1 = 1.43e7; resting calcium signal, replicate 2 = 1.83e7
CG34354 #4: calcium entry signal, replicate 1 = 3.42e7; calcium entry signal, replicate 2 = 4.61e7; resting calcium signal, replicate 1 = 1.84e7; resting calcium signal, replicate 2 = 2.02e7
CG34354 #5: calcium entry signal, replicate 1 = 3.67e7; calcium entry signal, replicate 2 = 2.95e7; resting calcium signal, replicate 1 = 2.20e7; resting calcium signal, replicate 2 = 1.42e7
Gga: calcium entry signal, replicate 1 = 3.40e7; calcium entry signal, replicate 2 = 3.72e7; resting calcium signal, replicate 1 = 1.56e7; resting calcium signal, replicate 2 = 1.70e7
CG7246: calcium entry signal, replicate 1 = 3.76e7; calcium entry signal, replicate 2 = 1.81e7; resting calcium signal, replicate 1 = 1.90e7; resting calcium signal, replicate 2 = 1.17e7
CCAP-R #1: calcium entry signal, replicate 1 = 3.92e7; calcium entry signal, replicate 2 = 6.28e7; resting calcium signal, replicate 1 = 2.01e7; resting calcium signal, replicate 2 = 2.68e7
CCAP-R #2: calcium entry signal, replicate 1 = 4.21e7; calcium entry signal, replicate 2 = 7.50e7; resting calcium signal, replicate 1 = 2.13e7; resting calcium signal, replicate 2 = 2.77e7
Mondo #1: calcium entry signal, replicate 1 = 3.81e7; resting calcium signal, replicate 1 = 1.90e7
Mondo #2: calcium entry signal, replicate 1 = 4.50e7; calcium entry signal, replicate 2 = 4.59e7; resting calcium signal, replicate 1 = 2.24e7; resting calcium signal, replicate 2 = 2.03e7
Mondo #3: calcium entry signal, replicate 1 = 2.33e7; calcium entry signal, replicate 2 = 4.53e7; resting calcium signal, replicate 1 = 1.18e7; resting calcium signal, replicate 2 = 1.96e7
CG4101: calcium entry signal, replicate 1 = 5.13e7; calcium entry signal, replicate 2 = 7.85e7; resting calcium signal, replicate 1 = 2.40e7; resting calcium signal, replicate 2 = 2.94e7
CG11367: calcium entry signal, replicate 1 = 2.50e7; calcium entry signal, replicate 2 = 2.95e7; resting calcium signal, replicate 1 = 1.45e7; resting calcium signal, replicate 2 = 1.42e7
CG4951: calcium entry signal, replicate 1 = 2.76e7; calcium entry signal, replicate 2 = 4.11e7; resting calcium signal, replicate 1 = 1.35e7; resting calcium signal, replicate 2 = 1.78e7
CG14143: calcium entry signal, replicate 1 = 3.35e7; calcium entry signal, replicate 2 = 4.44e7; resting calcium signal, replicate 1 = 1.57e7; resting calcium signal, replicate 2 = 1.92e7
CG14453: calcium entry signal, replicate 1 = 2.04e7; calcium entry signal, replicate 2 = 3.79e7; resting calcium signal, replicate 1 = 1.07e7; resting calcium signal, replicate 2 = 1.88e7
MP1: calcium entry signal, replicate 1 = 3.41e7; calcium entry signal, replicate 2 = 5.54e7; resting calcium signal, replicate 1 = 1.69e7; resting calcium signal, replicate 2 = 2.47e7

Single entries from above.
Value for Mondo #2 under “resting calcium signal, replicate 1”: 2.24e7
Result for Mondo #3 under “resting calcium signal, replicate 2”: 1.96e7
